Data published in PubChem BioAssay AID445 (National Center for Advancing Translational Sciences (NCATS), 2006).
Some of the results follow. The main result of the screen is listed elsewhere. These columns were measured beside it and carry no call. The list favours compounds with an active or inconclusive main result. The note in brackets gives the kind of curve behind each potency; many fits are weak.

test: IkB Signaling; settings: ABC-DLBCL IkBa-CBG/CBR dual luciferase ratio (green luciferase fused to IkBa over red control in OCI-Ly3 lymphoma cells), 4 h; measured here: control luc red channel unless noted
How it was run: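 Curves were fitted separately to fusion (green), unfused (red) and ratio luminescence, then classed by r2, magnitude and activity. Cells: OCI-Ly3, 4 h compound plus doxycycline at 37C; 10 uM MG-132 defined full response.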

| SMILES | AC50 |
| --- | --- |
| Cc1ccc(N2C(=O)CSC23C(=O)N(Cc2ccccc2F)c2ccccc23)cc1F (stereo not drawn) | 31.6 µM [falling, partial curve] |
| COc1cc2c(=O)c(C(=O)c3ccc(C)c(C)c3)cn(Cc3ccc(F)cc3)c2cc1OC | 25.1 µM [falling, partial curve] |
| CCOc1cc(CNC(=O)Cn2c(=O)c3cccn3c3ccc(F)cc32)cc(OCC)c1OCC | 0.794 µM [rising, full curve] |
| COc1cc(OC)c(NC(=O)c2cc3c(=O)oc4ccc(C)cc4c3s2)cc1Cl | 2 µM [rising, full curve] |
| Cc1ccc(-n2ncc3c(NCCO)ncnc32)cc1Cl | 25.1 µM [falling, single point] |
| Cc1cc(NC(=O)c2cc(-c3ccc(Cl)cc3)on2)n(-c2ccccc2)n1 | 10 µM [falling, full curve] |
| COC(=O)c1cc2oc3ccccc3c2n1CC(=O)Nc1ccc(C)c(F)c1 | 15.8 µM [falling, partial curve] |
| Cc1ccc(Cl)cc1NC(=O)COC(=O)CC(C)(C)CC1=NS(=O)(=O)c2ccccc2N1 | 10 µM [falling, partial curve] |
| CN(CC(=O)Nc1ccc2c(c1)OCCO2)S(=O)(=O)c1cccc2cccnc12 | 6.31 µM [falling, partial curve] |
| CCOC(=O)c1ccccc1NC(=O)CN1CCCN(Cc2cc(C)ccc2C)S1(=O)=O | 31.6 µM [falling, partial curve] |
| CCOC(=O)c1[nH]c2ccccc2c1NC(=O)c1ccccc1F | 0.251 µM [falling, partial curve, poor fit] |
| Cc1ncsc1C(=O)Nc1nc2c(s1)CC(C)CC2 (stereo not drawn) | 3.16 µM [falling, full curve, poor fit] |
| COc1ccc(C)cc1NC(=O)CSc1nnc(COc2ccc(Cl)cc2)n1Cc1ccco1 | 7.94 µM [falling, full curve] |
| Cc1ccccc1NC(=O)c1ccc2[nH]c(C)c(C)c2c1 | 15.8 µM [falling, partial curve] |
| CCc1cccc(C)c1NC(=O)CCS(=O)(=O)c1cc(Br)cc2c1N(C(=O)C1CC1)CC2 | 3.16 µM [rising, single point] |
| Cc1sc2ncnc(N3CCCCC3C)c2c1C (stereo not drawn) | 31.6 µM [falling, partial curve] |
| COc1ccc(C(=O)NCC(c2cccnc2)N2CCN(c3ccccc3)CC2)cc1 (stereo not drawn) | 25.1 µM [falling, single point] |
| CCCc1nn2c(=O)cc(COC(=O)c3cccc(NC(=O)c4cccs4)c3)nc2s1 | 0.794 µM [falling, full curve] |

An excerpt from above in order of length of the SMILES, rising.

| SMILES | AC50 |
| --- | --- |
| CCOC(=O)c1[nH]c2ccccc2c1NC(=O)c1ccccc1F | 0.251 µM [falling, partial curve, poor fit] |
| COc1ccc(C(=O)NCC(c2cccnc2)N2CCN(c3ccccc3)CC2)cc1 (stereo not drawn) | 25.1 µM [falling, single point] |
| Cc1cc(NC(=O)c2cc(-c3ccc(Cl)cc3)on2)n(-c2ccccc2)n1 | 10 µM [falling, full curve] |
| CCCc1nn2c(=O)cc(COC(=O)c3cccc(NC(=O)c4cccs4)c3)nc2s1 | 0.794 µM [falling, full curve] |
| COc1cc2c(=O)c(C(=O)c3ccc(C)c(C)c3)cn(Cc3ccc(F)cc3)c2cc1OC | 25.1 µM [falling, partial curve] |
